Measurements reported in PubChem BioAssay AID1508597 (Cure First, 2020)
This is an unselected part of about 2,100 deposited reagents. 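Calls flag viability under 80% in either arm, not effects specific to rucaparib; the reference for percent is not stated.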 A number with no mark means an inactive call. A reagent listed more than once was tested more than once; the source does not tell the runs apart. The record does not give: the 100% reference.

Aim: 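Genes whose silencing sensitises or protects ovarian cancer cells against rucaparib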 (primary screen)
Cells: human ovarian carcinoma lines grown from tumours: OCI-P5x (papillary serous) and OCI-C5x (clear cell)
Knock-down reagent: siRNA pool against human genes, 1.25 pmol siRNA per well
Timing: 72 h or 96 h, depending on the cell culture
Treatment: rucaparib 20 µM (about IC30) or vehicle, present until read-out
Measurement: 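Luminescent ATP-based viability assay read 72 or 96 h after transfection, depending on culture, given as normalised percent viability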
Direction: viability, normalised: higher = more viable cells remaining
Call rule: 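Active when normalised viability falls below 80 percent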
Meaning of the calls: active = viability under 80%; inactive = viability 80% or more

no.	target	rucaparib or vehicle	cell line	technical replicate	viability, normalised (%)
1	MAP2K5	Rucaparib	OCI-C5x (clear cell)	1	55.2 (active)
2	MAP2K5	Rucaparib	OCI-C5x (clear cell)	2	79.5 (active)
3	MAP2K5	Rucaparib	OCI-C5x (clear cell)	3	64.6 (active)
4	MAP2K5	Rucaparib	OCI-P5x (serous)	1	93.5
5	MAP2K5	Rucaparib	OCI-P5x (serous)	2	75.3 (active)
6	MAP2K5	Rucaparib	OCI-P5x (serous)	3	75.9 (active)
7	MAP2K5	Vehicle	OCI-C5x (clear cell)	1	59.9 (active)
8	MAP2K5	Vehicle	OCI-C5x (clear cell)	2	58 (active)
9	MAP2K5	Vehicle	OCI-C5x (clear cell)	3	57.2 (active)
10	MAP2K5	Vehicle	OCI-P5x (serous)	1	53.1 (active)
11	MAP2K5	Vehicle	OCI-P5x (serous)	2	64.3 (active)
12	MAP2K5	Vehicle	OCI-P5x (serous)	3	80.3
13	POLG2	Rucaparib	OCI-C5x (clear cell)	1	89.4
14	POLG2	Rucaparib	OCI-C5x (clear cell)	2	93.8
15	POLG2	Rucaparib	OCI-C5x (clear cell)	3	90.2
16	POLG2	Rucaparib	OCI-P5x (serous)	1	128
17	POLG2	Rucaparib	OCI-P5x (serous)	2	169
18	POLG2	Rucaparib	OCI-P5x (serous)	3	131
19	POLG2	Vehicle	OCI-C5x (clear cell)	1	87.5
20	POLG2	Vehicle	OCI-C5x (clear cell)	2	94.5
21	POLG2	Vehicle	OCI-C5x (clear cell)	3	77.9 (active)
22	POLG2	Vehicle	OCI-P5x (serous)	1	134
23	POLG2	Vehicle	OCI-P5x (serous)	2	137
24	POLG2	Vehicle	OCI-P5x (serous)	3	123
25	CHMP1B	Rucaparib	OCI-C5x (clear cell)	1	38.8 (active)
26	CHMP1B	Rucaparib	OCI-C5x (clear cell)	2	59.7 (active)
27	CHMP1B	Rucaparib	OCI-C5x (clear cell)	3	40.7 (active)
28	CHMP1B	Rucaparib	OCI-P5x (serous)	1	76.3 (active)
29	CHMP1B	Rucaparib	OCI-P5x (serous)	2	80.6
30	CHMP1B	Rucaparib	OCI-P5x (serous)	3	50.1 (active)
31	CHMP1B	Vehicle	OCI-C5x (clear cell)	1	22.5 (active)
32	CHMP1B	Vehicle	OCI-C5x (clear cell)	2	47.2 (active)
33	CHMP1B	Vehicle	OCI-C5x (clear cell)	3	55.2 (active)
34	CHMP1B	Vehicle	OCI-P5x (serous)	1	81.1
35	CHMP1B	Vehicle	OCI-P5x (serous)	2	70.3 (active)
36	CHMP1B	Vehicle	OCI-P5x (serous)	3	64.1 (active)
37	CAMK2G	Rucaparib	OCI-C5x (clear cell)	1	75.8 (active)
38	CAMK2G	Rucaparib	OCI-C5x (clear cell)	1	46.3 (active)
39	CAMK2G	Rucaparib	OCI-C5x (clear cell)	2	47.4 (active)
40	CAMK2G	Rucaparib	OCI-C5x (clear cell)	2	66.9 (active)
41	CAMK2G	Rucaparib	OCI-C5x (clear cell)	3	65.2 (active)
42	CAMK2G	Rucaparib	OCI-C5x (clear cell)	3	44 (active)
43	CAMK2G	Rucaparib	OCI-P5x (serous)	1	83.3
44	CAMK2G	Rucaparib	OCI-P5x (serous)	1	49.5 (active)
45	CAMK2G	Rucaparib	OCI-P5x (serous)	2	58.3 (active)
46	CAMK2G	Rucaparib	OCI-P5x (serous)	2	82.8
47	CAMK2G	Rucaparib	OCI-P5x (serous)	3	65.1 (active)
48	CAMK2G	Rucaparib	OCI-P5x (serous)	3	90.6
49	CAMK2G	Vehicle	OCI-C5x (clear cell)	1	39.4 (active)
50	CAMK2G	Vehicle	OCI-C5x (clear cell)	1	79.3 (active)
51	CAMK2G	Vehicle	OCI-C5x (clear cell)	2	80.9
52	CAMK2G	Vehicle	OCI-C5x (clear cell)	2	66.9 (active)
53	CAMK2G	Vehicle	OCI-C5x (clear cell)	3	54.3 (active)
54	CAMK2G	Vehicle	OCI-C5x (clear cell)	3	55.4 (active)
55	CAMK2G	Vehicle	OCI-P5x (serous)	1	71.3 (active)
56	CAMK2G	Vehicle	OCI-P5x (serous)	1	70.5 (active)
57	CAMK2G	Vehicle	OCI-P5x (serous)	2	63.3 (active)
58	CAMK2G	Vehicle	OCI-P5x (serous)	2	86.1
59	CAMK2G	Vehicle	OCI-P5x (serous)	3	53.1 (active)
60	CAMK2G	Vehicle	OCI-P5x (serous)	3	86.5

A portion of the results above:
no.	target	rucaparib or vehicle	cell line	technical replicate	viability, normalised (%)
52	CAMK2G	Vehicle	OCI-C5x (clear cell)	2	66.9 (active)
53	CAMK2G	Vehicle	OCI-C5x (clear cell)	3	54.3 (active)
54	CAMK2G	Vehicle	OCI-C5x (clear cell)	3	55.4 (active)
55	CAMK2G	Vehicle	OCI-P5x (serous)	1	71.3 (active)
56	CAMK2G	Vehicle	OCI-P5x (serous)	1	70.5 (active)
57	CAMK2G	Vehicle	OCI-P5x (serous)	2	63.3 (active)
58	CAMK2G	Vehicle	OCI-P5x (serous)	2	86.1
59	CAMK2G	Vehicle	OCI-P5x (serous)	3	53.1 (active)
